Data on 7 sequences can be found in US7572434B2, “Method for assessing the effect of a drug on long term memory formation” (Cold Spring Harbor Laboratory, priority 1994, dated 2009).

Data set [1] has as its system dCREB2-b. Briefly: competition with a labelled probe. Conditions: higher affinity for CRE than nonspecific DNA; competitors not reported individually; purified recombinant protein.
The subject of data set [2] is T1, dCREB1.
T1 sequence (limits assumed): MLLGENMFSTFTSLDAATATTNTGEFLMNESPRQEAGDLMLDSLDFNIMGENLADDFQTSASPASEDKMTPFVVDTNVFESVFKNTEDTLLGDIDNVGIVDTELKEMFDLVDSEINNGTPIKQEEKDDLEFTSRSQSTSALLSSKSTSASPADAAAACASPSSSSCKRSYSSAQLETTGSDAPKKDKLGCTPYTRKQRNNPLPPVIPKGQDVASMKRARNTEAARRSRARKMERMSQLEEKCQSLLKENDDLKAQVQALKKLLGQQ
As to the kind of experiment: EMSA. The following applies: protein in an extract.

Data set [3] deals with dCREB2-b. As to the kind of experiment: EMSA. The following applies: purified recombinant protein. A general note: A gel shift assay detects complexes by their altered migration in electrophoresis.
The subject of data set [4] is T1, dCREB1. As to the kind of experiment: binding assay. Conditions: expression-library filter screen with labelled 3xCRE probe; protein in a lysate after overexpression; protein details: lambda gt11 expression clone on filter lifts; label: 32P fill-in.
The test system of data set [5] is dCREB2-b. As to the kind of experiment: binding assay. Conditions: expression-library filter screen with labelled 3xCRE probe; protein in a lysate after overexpression; label: 32P fill-in.

For some of these results: Where cells or extracts were used, other partners may take part. For some of these results: A weaker result is weaker than the reference pair of the same experiment. For some of these results: Tags and fusion partners may be left off the protein sequences shown. For some of these results: For at least one entry, the source does not settle the construct or the ends of the probe.

Consider “TGCACGGGTTTTCGACGTTCACTGGTAGTGTCTGATGAGGCCGAAAGGCCGAAACGCGATGCCCATAACCACCACGCTCAG (double strand) [Nonspecific competitor #1]”, for which the binding result in the data set with dCREB2-b [1] is “binds more weakly”.
“AAATGAATTAACGGAAATGAATTAACGGAAATGAATTAACGG (double strand) [3xmCRE mutant]”: the binding result is on record as “binds more weakly” in the data set on dCREB1 [2] (lower affinity than 3xCRE, variant of 3xCRE wild-type) and “binds more weakly” in the data set on dCREB2-b [3] (lower but detectable affinity than wild-type 3xCRE, variant of 3xCRE wild-type).
As for “CTAGAGCTTGCAAGCATGCTTGCAAGCAAGCATGCTTGCAAGCATGCTTGCAAGC (double strand) [Nonspecific competitor #3]”, the binding result with dCREB2-b [1] is reported as “binds more weakly”.
Still for that read-out and setting: then “TCGACCCACAGTTTCGGGTTTTCGAGCAAGTCTGCTAGTGTCTGATGAGGCCGAAAGGCCGAAACGCGAAGCCGTATTGCACCACGCTCATCGAGAAGGC (double strand) [Nonspecific competitor #2]”, with “binds more weakly”; and “CTCTAGAGCGTACGCAAGCGTACGCAAGCGTACG (double strand) [Nonspecific competitor #4]”, with “binds more weakly”.
“CGTCTAGATCTATGACTGAATATGACGTAATATGACGTAATGGTACCAGATCTGGCC (double strand) [3xCRE screening probe]”: the binding result in the data set on dCREB1 [4] and in the data set with dCREB2-b [5] was “binds” throughout.
Take “AAATGACGTAACGGAAATGACGTAACGGAAATGACGTAACG (double strand) [3xCRE wild-type]”: the binding result in the data set on dCREB1 [2] (higher-affinity binding than to 3xmCRE, label: 32P 5' end) is on record as “binds”; with dCREB2-b [3] (Tris-glycine gel with 3 mM MgCl2, label: 32P 5' end), “binds”.
